The test addresses EGFR, endogenous in MH1002 cells (human (endogenous in MH1002)) (UniProt P00533). In words: proximity ligation; MH1002 cells with endogenous BACE1 and EGFR, stained for BACE1 and EGFR.

Amino acid sequences for entries named in this document (tags omitted). Residues count along the entry.
UniProt P56817, residues 46-501: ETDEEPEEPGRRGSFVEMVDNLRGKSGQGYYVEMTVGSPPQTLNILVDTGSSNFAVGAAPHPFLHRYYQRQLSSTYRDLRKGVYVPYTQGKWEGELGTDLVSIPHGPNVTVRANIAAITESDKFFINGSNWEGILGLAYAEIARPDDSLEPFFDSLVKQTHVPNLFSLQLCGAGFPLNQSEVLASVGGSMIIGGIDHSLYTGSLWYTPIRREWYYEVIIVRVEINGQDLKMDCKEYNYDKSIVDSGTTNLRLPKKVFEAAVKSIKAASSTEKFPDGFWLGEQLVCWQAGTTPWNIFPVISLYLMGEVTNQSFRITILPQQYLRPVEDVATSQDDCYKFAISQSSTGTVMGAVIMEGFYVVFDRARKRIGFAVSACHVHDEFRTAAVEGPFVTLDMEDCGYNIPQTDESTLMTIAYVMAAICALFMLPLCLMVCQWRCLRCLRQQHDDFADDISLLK

No constants are given. Whether binding was seen depends on the method and setting. Binding seen in cells or lysates may run through a third protein. Some binding calls cover weakened binding; strength is not graded here.

Turning to “BACE1, endogenous in MH1002 cells (from UniProt P56817 46-501) (enzyme)”, the binding result is on record as “binds”.

Source of the values: PMC7617989.
